Experimental data from PubChem BioAssay AID1671190 (National Center for Advancing Translational Sciences (NCATS), 2021).
Values joined by “and” are separate entries in the source; they are usually repeats but may differ in a detail not shown here. Equal values may be shown once. The campaign covered roughly 580,000 compounds. About 6,100 (1.1%) were called active. Inconclusive results, whose numbers are uncertain, are shown with a selection of clear calls. Calls follow the shape of the dose curve; as a rule, active = well fitted inhibition curve with a large enough effect; inconclusive = small, poorly fitted or top-dose-only effect, or another doubt; inactive = no such curve, though single readings can be large or run the other way. Where the call is inconclusive, the potency comes from a doubtful curve fit.

By UniProt entry, the sequences of proteins in these tests, tags left out. Where a name states a change or a piece, a line headed by the entry shows the natural chain unless it says otherwise.
UniProt P18054: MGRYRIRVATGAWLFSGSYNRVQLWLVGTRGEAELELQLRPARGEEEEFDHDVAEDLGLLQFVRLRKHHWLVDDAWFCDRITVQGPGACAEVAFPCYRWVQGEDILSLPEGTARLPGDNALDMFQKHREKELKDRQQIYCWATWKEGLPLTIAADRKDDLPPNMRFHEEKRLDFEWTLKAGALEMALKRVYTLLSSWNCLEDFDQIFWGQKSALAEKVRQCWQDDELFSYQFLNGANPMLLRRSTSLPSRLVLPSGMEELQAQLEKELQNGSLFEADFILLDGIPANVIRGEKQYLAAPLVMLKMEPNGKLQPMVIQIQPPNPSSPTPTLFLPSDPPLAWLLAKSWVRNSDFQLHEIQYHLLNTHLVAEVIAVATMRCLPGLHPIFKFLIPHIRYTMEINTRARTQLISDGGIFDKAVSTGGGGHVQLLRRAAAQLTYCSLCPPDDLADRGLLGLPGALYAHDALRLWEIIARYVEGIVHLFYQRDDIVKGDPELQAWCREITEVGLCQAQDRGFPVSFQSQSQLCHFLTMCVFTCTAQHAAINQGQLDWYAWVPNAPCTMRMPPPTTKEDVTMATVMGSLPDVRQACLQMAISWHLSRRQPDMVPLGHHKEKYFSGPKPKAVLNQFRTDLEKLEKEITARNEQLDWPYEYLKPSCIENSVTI

Target: Polyunsaturated fatty acid lipoxygenase ALOX12 (Homo sapiens) (UniProt P18054)
Assay: Primary qHTS assay for inhibitors of human arachidonate 12S-lipoxygenase (ALOX12): Round 2
Conditions: purified 12hLO, xylenol orange hydroperoxide absorbance; activity change, negative = inhibition: at 108 µM (top of the series) unless noted
Procedure, shortened: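 Hydroperoxide product was detected by ferrous iron/xylenol orange as the 573 to 405 nm absorbance ratio. Arachidonic acid at 40 uM (final) was turned over for 30 min at room temperature by 150 nM human 12hLO, pH 7.0 Hepes buffer, after 15 min compound preincubation.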
% is scaled to controls: 0 for no effect and ±100 for the full control effect; potency is read from the fitted curve at half-maximal effect.

Row | Compound | Potency | activity change, negative = inhibition
1 | N#Cc1c(NC(=O)CSc2n[nH]c(N)n2)oc(-c2ccccc2)c1-c1ccccc1 | inconclusive: 56.2 µM [inhibitor, partial curve, poor fit] | –
2 | CN(Cc1ccc(F)cc1)C(=O)c1sccc1-c1ccccc1 | – | inactive: 8.19%
3 | CCn1c(/C=C/c2cc(Br)ccc2O)nc2ccccc2c1=O | inconclusive: 100 µM [inhibitor, single point] | –
4 | CC(C)C#Cc1ccc2c(c1)O[C@@H](CN(C)S(=O)(=O)c1cn(C)cn1)[C@@H](C)CN([C@H](C)CO)S2(=O)=O | – | inactive: -5.03%
5 | C[C@@H]1CN([C@H](C)CO)C(=O)CCCn2nncc2CO[C@H]1CN(C)S(=O)(=O)c1ccccc1F | inconclusive: 50.1 µM [inhibitor, single point] | –
6 | O=C(CN1C(=O)NC2(CCCCCC2)C1=O)c1ccc(F)cc1 | – | inactive: 0.282%
7 | NC(N)=NC(N)=Nc1ccc(Br)cc1 | inactive | –
8 | N#CC1=C(N)Oc2cc(O)ccc2C1c1ccccc1 (centres undefined) | active: 4.47 µM and inconclusive: 79.4 µM [inhibitor, partial curve, poor fit] | –
9 | CC(COc1cccc(Cl)c1)CN1CCC(C(O)(c2ccccc2)c2ccccc2)CC1 (centres undefined) | inconclusive: 50.1 µM [inhibitor, partial curve, poor fit] | –
10 | COc1cccc(CN(C)CCCn2cnc3c(OC)ncnc32)c1 | inconclusive: 31.6 µM [inhibitor, single point] | –
11 | COc1cc2[nH]c(=O)c(C(=O)NCc3ccccc3Cl)c(O)c2cc1OC | – | inactive: 26.2%
12 | O=C1CCCN1CCC1CCN(C(=S)Nc2ccc(F)cc2)CC1 | inconclusive: 112 µM [inhibitor, single point] | –
13 | CC(=O)c1ccc(NS(=O)(=O)c2ccc3ccccc3c2)cc1 | – | inactive: 13.6%
14 | CSc1cccc(NC(=O)Cn2nc3c(cc2=O)CCCCC3)c1 | – | inactive: 117%
15 | COC[C@@H]1NS(=O)(=O)c2ccc(Br)cc2O[C@H]1c1ccccc1 | inconclusive: 44.7 µM [inhibitor, partial curve, poor fit] | –
16 | COc1cccc(CNc2nc3cc(-c4cccc(C(F)(F)F)c4)sc3c(=O)n2C)c1OC | inconclusive: 126 µM [inhibitor, partial curve, poor fit] | –
17 | N#Cc1c(N2CCN(C(=O)C(=O)NCC3CCCO3)CC2)nc(-c2ccccc2)c2c1CCCC2 (centres undefined) | – | inactive: -10.3%
18 | COCCNc1nc(NCc2ccccc2F)c2sccc2n1 | – | inactive: -24.2%
19 | CC1CCCCN1CCC(=O)O (centres undefined) | inconclusive: 44.7 µM [inhibitor, partial curve, poor fit] | –
20 | Fc1ccc(CNCCN2CCCC2)cc1 | inconclusive: 141 µM [inhibitor, partial curve, poor fit] | –
21 | S=C(N/N=C/c1cccc2ccccc12)Nc1cccc(Cl)c1 | inconclusive: 15.8 µM [inhibitor, partial curve, poor fit] | –
22 | COc1ccc(OC)c(/C=C2\SC(=S)N(Cc3cccnc3)C2=O)c1 | – | inactive: -5.65%
23 | COc1cccc(CN2Cc3cc(NC(=O)c4cccc(F)c4)ccc3OC(C)C2=O)c1OC (centres undefined) | – | inactive: 39.7%

From compound 14 up to 18, as listed above:
Row | Compound | Potency | activity change, negative = inhibition
14 | CSc1cccc(NC(=O)Cn2nc3c(cc2=O)CCCCC3)c1 | – | inactive: 117%
15 | COC[C@@H]1NS(=O)(=O)c2ccc(Br)cc2O[C@H]1c1ccccc1 | inconclusive: 44.7 µM [inhibitor, partial curve, poor fit] | –
16 | COc1cccc(CNc2nc3cc(-c4cccc(C(F)(F)F)c4)sc3c(=O)n2C)c1OC | inconclusive: 126 µM [inhibitor, partial curve, poor fit] | –
17 | N#Cc1c(N2CCN(C(=O)C(=O)NCC3CCCO3)CC2)nc(-c2ccccc2)c2c1CCCC2 (centres undefined) | – | inactive: -10.3%
18 | COCCNc1nc(NCc2ccccc2F)c2sccc2n1 | – | inactive: -24.2%

Continuation:

Row | Compound | Potency | activity change, negative = inhibition
24 | Cc1noc([C@H]2CCN(C(=O)C3CC3)C[C@H]2NC(=O)C2CC2)n1 | – | inactive: 61.5%
25 | CCOc1ccc(S(=O)(=O)Nc2nc3ccccc3nc2Nc2ccc(C(=O)O)cc2)cc1 | inconclusive: 11.2 µM [inhibitor, full curve, poor fit] | –
26 | Cc1ccc2c(=O)cc(C(=O)Nc3sc4c(c3C#N)CCCC4)oc2c1C | – | inactive: -42.4%
27 | Cc1ncc(CCl)c2c1OC(C)(C)OC2 | inconclusive: 1.78 µM [inhibitor, full curve, poor fit] | –
28 | COc1ccc(NC(=O)N2CCC3(CC2)SCC(=O)N3c2ccc(F)cc2)cc1 | inconclusive: 1.41 µM [inhibitor, full curve, poor fit] | –
29 | N#Cc1ccccc1CNc1ccc(Br)cc1F | inconclusive: 50.1 µM [inhibitor, partial curve, poor fit] | –
30 | Cc1ccc(CN2C(=O)C(Cc3ccccc3)Nc3ncnc(N4CCOCC4)c32)cc1 (centres undefined) | inconclusive: 22.4 µM [inhibitor, full curve, poor fit] | –
31 | Cc1cc(N=Cc2c(O)ccc3ccccc23)no1 | inconclusive: 17.8 µM [inhibitor, full curve] | –
32 | Cn1c(=O)c2c(nc(CN3CCN(C(=O)c4ccco4)CC3)n2Cc2ccccc2)n(C)c1=O | inconclusive: 7.94 µM [inhibitor, full curve, poor fit] | –
33 | CN(C)Cc1ccc(O)cc1 | – | inactive: -26.2%
34 | NC(=S)NN=C1C=CCCC1 | inconclusive: 39.8 µM [inhibitor, partial curve, poor fit] | –
35 | CN1CCC(NC[C@H]2O[C@@H](CO)[C@@H](O)[C@H]2N2CCN(c3ccc(F)cc3)CC2)CC1 | inconclusive: 22.4 µM [inhibitor, single point] | –
36 | N#Cc1ccc(NS(N)(=O)=O)cc1 | inconclusive: 35.5 µM [inhibitor, partial curve, poor fit] | –
37 | CCOC(=O)C1CCN(S(=O)(=O)c2cc(C(=O)N3CCCCC3)ccc2OC)CC1 | inconclusive: 6.31 µM [inhibitor, partial curve, poor fit] | –
38 | FC(F)(F)c1ccc(N2CCN(c3ncnc4c3nnn4Cc3ccccc3Cl)CC2)cc1 | – | inactive: 0%
39 | O=S1(=O)CCOC[C@H](CC2CCCCC2)N1Cc1cccc(F)c1 | – | inactive: 7.32%
40 | Cn1c(SCC(=O)N2c3ccccc3CCc3ccccc32)nnc1-c1cc2ccccc2cc1O | – | inactive: -7.31%
41 | Cn1c(C2=C(O)CN(c3ccc(C(=O)O)cc3)C2=N)nc2ccccc21 | inconclusive: 2.51 µM [inhibitor, full curve, poor fit] | –
42 | O=C(OCc1cc(-c2ccc(Cl)cc2)no1)c1cc(Br)c[nH]1 | inconclusive: 35.5 µM [inhibitor, partial curve, poor fit] | –
43 | CN(C)S(=O)(=O)N(CC(=O)N(Cc1ccccc1)Cc1ccccc1)c1ccccc1 | – | inactive: -14%
44 | COc1cccc(OC)c1C(=O)NC(=O)Nc1c(F)cc(F)cc1F | inconclusive: 100 µM [inhibitor, single point] | –
45 | O=C(Nc1ccc(NC(=O)c2cc3ccccc3o2)cc1)c1ccccc1 | inconclusive: 3.98 µM [inhibitor, full curve, poor fit] | –
46 | COc1ccc(-c2cc(N3CCN(C(=O)c4ccc(OC)cc4OC)CC3)n[nH]2)cc1 | – | inactive: 17.4%

Row | Compound | Potency | activity change, negative = inhibition
47 | Cc1c(-c2ccccc2)oc2c(C(=O)OCC(=O)OC(C)(C)C)cccc2c1=O | inconclusive: 50.1 µM [inhibitor, partial curve, poor fit] | –
48 | CC(C)Oc1c(Br)cc(Br)cc1/C=N/NC(N)=S | active: 35.5 µM | –
49 | CC(C)NC(=O)C1COC2(CCN(C(=O)c3cccc([N+](=O)[O-])c3)CC2)N1C(=O)c1ccccc1 (centres undefined) | – | inactive: -8.44%
50 | CC(C)[C@@H]1Cc2[nH]c(=S)[nH]c(=O)c2[C@H](CCc2ccccc2)O1 | active: 44.7 µM | –
51 | O=C(CN1CCN(S(=O)(=O)c2cc(Cl)ccc2Cl)CC1)Nc1cccc(F)c1 | inconclusive: 31.6 µM [inhibitor, partial curve] | –
52 | Cc1cccc(CNc2nc(-c3ccccc3CN(C)C)nc3ccccc23)c1 | inconclusive: 1.78 µM [inhibitor, full curve, poor fit] | –
53 | Cc1ccccc1-c1cc(C(=O)O)nn1CC1CC(c2cccc([N+](=O)[O-])c2)=NO1 (centres undefined) | – | inactive: -28%
54 | N#Cc1c(NC(=O)c2cccc(S(=O)(=O)Nc3ccc(C(=O)O)cc3)c2)sc2c1CCCC2 | inconclusive: 56.2 µM [inhibitor, partial curve, poor fit] | –
55 | Fc1ccc(SCCSc2nnc(-c3ccccc3F)n2C2CC2)cc1 | inconclusive: 44.7 µM [inhibitor, partial curve, poor fit] | –
56 | CSc1nc2sc3c(c2c(=O)n1CC(C)C)CC(C)(C)OC3 | – | inactive: 130%
57 | CC(C)C[C@H](NC(=O)C1CC(=O)N(c2ccc3c(c2)OCO3)C1)C(=O)NC1CCCC1 (some centres undefined) | – | inconclusive: -36.4% [inhibitor]
58 | Cc1ccc(C(=O)Nc2sc3c(c2C(=O)O)CCCC3)o1 | – | inactive: 1.17%
59 | Cc1cccnc1NCC(O)COc1ccccc1 (centres undefined) | – | inactive: -6.51%
60 | Cc1ccc(CNC(=O)CCCn2c(C)c3cnn(-c4ccccc4)c(=O)c3c2C)cc1 | inconclusive: 20 µM [inhibitor, full curve, poor fit] | –
61 | O=C(CSCc1ccccc1)c1ccc[nH]1 | inconclusive: 44.7 µM [inhibitor, partial curve] | –
62 | COc1ccc(C2CC(c3cccs3)=NN2C(=O)c2ccc(Br)o2)cc1 (centres undefined) | inconclusive: 39.8 µM [inhibitor, partial curve, poor fit] | –
63 | COc1ccc(S(=O)(=O)n2cnc3cc(C)c(C)cc32)cc1 | inconclusive: 39.8 µM [inhibitor, partial curve, poor fit] | –
64 | CC1=C(C(=O)Nc2ccc(C)cc2C)C(c2ccccc2[N+](=O)[O-])n2ncc(C(=O)Nc3ccccc3)c2N1 (centres undefined) | inconclusive: 89.1 µM [inhibitor, partial curve, poor fit] | –
65 | CSc1ncccc1C(=O)OCC(=O)c1ccccc1Br | – | inactive: 5.8%
66 | N#C/C(=C\c1ccc(-c2ccccc2F)o1)c1nc2ccccc2[nH]1 | – | inactive: 24.3%
67 | Cc1nc2c(-c3ccc(Cl)cc3)c(C)[nH]n2c(=O)c1Cc1ccccc1 | – | inactive: 2.11%
68 | CC(C)CCN1C(=O)c2ccccc2C1c1nnnn1C(C)C (centres undefined) | inconclusive: 79.4 µM [inhibitor, single point] | –
69 | COC(=O)C1=CNC=C(C(=O)OC)C1c1ccc(Cl)c(Cl)c1 | inconclusive: 44.7 µM [inhibitor, partial curve, poor fit] | –
